Measurements reported in the supplement of paper PMC10849652.
The other results are listed elsewhere or left out.

Amino acid sequences for entries named in this document (tags omitted). A change or cut given only in a name is not applied to a line headed by its entry.
UniProt Q9NV35: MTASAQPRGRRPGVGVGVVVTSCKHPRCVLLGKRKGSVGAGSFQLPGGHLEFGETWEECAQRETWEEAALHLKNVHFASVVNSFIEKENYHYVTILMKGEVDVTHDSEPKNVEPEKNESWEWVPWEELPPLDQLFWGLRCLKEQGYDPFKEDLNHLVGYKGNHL
UniProt Q14978: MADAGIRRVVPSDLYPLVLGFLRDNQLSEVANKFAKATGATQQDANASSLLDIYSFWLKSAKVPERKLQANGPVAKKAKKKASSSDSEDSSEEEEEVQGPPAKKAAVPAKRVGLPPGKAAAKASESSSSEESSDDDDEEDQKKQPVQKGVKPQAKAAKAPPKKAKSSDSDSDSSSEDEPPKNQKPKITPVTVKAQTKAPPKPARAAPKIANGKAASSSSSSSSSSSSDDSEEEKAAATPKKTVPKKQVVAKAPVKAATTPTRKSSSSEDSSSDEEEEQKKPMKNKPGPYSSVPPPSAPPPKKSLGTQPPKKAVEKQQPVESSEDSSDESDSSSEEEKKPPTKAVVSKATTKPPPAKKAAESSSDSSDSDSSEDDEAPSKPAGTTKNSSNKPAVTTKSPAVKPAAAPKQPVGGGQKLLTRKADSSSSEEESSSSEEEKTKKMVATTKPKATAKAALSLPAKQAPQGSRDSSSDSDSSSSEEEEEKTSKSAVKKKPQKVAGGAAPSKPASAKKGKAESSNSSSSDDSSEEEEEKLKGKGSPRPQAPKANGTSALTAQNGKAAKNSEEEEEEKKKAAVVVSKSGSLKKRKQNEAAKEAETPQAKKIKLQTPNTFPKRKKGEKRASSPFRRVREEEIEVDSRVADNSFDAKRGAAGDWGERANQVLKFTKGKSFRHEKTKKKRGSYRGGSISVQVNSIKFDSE
UniProt Q9Y2X3: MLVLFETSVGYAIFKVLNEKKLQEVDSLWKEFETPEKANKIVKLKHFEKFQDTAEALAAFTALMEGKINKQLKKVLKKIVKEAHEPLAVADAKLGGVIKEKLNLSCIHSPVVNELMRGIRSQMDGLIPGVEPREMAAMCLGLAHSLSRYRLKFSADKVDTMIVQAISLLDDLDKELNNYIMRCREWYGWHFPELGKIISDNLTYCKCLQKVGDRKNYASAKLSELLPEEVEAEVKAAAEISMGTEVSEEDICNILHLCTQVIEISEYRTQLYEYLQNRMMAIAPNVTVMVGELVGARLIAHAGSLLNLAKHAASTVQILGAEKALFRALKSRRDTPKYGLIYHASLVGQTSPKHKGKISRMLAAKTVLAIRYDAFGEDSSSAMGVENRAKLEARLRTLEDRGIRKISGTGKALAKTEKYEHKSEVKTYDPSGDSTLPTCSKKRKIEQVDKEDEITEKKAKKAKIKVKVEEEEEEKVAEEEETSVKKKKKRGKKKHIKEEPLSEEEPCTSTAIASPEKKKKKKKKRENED
UniProt P16083: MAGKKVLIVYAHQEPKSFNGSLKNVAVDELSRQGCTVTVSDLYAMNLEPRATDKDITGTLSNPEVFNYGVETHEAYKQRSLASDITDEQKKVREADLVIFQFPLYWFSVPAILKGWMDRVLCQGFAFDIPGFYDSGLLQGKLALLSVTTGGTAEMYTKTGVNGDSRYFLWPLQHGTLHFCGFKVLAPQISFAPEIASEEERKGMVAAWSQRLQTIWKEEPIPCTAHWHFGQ
UniProt Q96DE0: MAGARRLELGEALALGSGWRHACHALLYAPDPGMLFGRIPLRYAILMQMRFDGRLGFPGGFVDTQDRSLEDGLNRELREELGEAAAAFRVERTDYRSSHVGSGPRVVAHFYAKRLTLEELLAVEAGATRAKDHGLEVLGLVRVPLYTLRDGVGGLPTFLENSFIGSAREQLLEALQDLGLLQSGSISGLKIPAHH
UniProt O75607: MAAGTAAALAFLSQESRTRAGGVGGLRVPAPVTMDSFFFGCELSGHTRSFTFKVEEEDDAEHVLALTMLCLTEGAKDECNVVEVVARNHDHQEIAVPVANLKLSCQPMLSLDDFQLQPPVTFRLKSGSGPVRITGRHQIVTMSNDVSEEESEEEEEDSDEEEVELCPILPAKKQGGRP
UniProt Q13287: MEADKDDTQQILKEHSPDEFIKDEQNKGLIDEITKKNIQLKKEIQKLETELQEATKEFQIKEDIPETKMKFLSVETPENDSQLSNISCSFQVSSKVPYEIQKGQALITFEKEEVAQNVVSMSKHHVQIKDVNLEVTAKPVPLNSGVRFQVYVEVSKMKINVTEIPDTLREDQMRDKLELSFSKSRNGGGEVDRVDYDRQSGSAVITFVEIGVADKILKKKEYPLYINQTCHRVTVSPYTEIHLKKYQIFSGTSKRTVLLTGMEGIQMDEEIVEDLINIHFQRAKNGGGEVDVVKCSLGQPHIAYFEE
UniProt P53384: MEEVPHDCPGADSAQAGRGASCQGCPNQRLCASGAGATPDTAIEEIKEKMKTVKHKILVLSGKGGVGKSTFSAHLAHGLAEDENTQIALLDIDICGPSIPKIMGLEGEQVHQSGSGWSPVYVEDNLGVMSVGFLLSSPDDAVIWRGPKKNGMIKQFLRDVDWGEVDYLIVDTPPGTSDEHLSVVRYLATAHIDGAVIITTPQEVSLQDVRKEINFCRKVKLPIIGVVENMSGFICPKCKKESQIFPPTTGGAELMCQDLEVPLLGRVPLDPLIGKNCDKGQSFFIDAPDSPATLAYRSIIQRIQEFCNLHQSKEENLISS
UniProt P49757: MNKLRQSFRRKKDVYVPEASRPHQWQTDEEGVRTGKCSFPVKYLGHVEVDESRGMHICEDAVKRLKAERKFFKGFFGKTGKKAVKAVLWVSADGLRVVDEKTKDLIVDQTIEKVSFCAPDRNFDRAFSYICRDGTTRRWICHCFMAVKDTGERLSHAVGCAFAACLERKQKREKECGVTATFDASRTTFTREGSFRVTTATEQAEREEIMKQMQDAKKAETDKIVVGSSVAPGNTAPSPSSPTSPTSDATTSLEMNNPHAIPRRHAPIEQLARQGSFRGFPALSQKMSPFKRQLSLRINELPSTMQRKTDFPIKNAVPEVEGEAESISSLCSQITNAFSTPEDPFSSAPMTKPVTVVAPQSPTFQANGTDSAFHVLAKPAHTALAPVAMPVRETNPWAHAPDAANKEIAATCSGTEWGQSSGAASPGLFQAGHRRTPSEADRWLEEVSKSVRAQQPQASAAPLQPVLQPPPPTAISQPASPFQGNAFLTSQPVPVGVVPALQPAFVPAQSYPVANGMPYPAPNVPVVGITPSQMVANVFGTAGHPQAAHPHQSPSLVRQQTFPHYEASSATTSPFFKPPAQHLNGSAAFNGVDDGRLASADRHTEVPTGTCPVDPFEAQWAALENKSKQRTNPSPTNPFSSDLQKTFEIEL
UniProt Q9Y6R0: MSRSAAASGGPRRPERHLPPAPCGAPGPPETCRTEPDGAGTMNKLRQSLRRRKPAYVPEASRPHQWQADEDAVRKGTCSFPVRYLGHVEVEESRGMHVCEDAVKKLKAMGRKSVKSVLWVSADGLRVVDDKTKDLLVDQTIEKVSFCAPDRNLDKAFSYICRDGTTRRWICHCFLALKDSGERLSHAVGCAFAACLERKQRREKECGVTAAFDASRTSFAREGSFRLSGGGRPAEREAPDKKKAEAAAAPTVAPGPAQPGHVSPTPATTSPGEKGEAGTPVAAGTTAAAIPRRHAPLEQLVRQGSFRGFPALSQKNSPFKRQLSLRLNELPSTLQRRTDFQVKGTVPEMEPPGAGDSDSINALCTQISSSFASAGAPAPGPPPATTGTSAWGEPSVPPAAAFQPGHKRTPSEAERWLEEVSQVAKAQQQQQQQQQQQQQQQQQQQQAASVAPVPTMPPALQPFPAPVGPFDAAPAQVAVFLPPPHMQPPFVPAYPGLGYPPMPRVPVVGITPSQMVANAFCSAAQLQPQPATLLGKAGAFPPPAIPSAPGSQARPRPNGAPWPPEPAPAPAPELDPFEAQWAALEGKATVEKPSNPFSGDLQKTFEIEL
UniProt Q9Y3C1: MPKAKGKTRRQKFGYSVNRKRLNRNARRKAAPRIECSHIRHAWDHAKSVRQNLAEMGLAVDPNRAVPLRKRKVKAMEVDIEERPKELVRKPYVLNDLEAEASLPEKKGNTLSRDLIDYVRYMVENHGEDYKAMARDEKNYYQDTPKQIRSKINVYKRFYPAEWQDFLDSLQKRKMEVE
UniProt Q9BV86: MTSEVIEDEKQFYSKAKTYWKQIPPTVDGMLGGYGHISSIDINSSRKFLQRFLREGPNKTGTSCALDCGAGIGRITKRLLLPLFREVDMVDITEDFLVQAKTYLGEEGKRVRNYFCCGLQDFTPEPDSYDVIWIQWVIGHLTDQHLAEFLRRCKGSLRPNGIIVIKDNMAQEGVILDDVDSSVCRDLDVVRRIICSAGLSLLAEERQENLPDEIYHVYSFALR
UniProt P46459: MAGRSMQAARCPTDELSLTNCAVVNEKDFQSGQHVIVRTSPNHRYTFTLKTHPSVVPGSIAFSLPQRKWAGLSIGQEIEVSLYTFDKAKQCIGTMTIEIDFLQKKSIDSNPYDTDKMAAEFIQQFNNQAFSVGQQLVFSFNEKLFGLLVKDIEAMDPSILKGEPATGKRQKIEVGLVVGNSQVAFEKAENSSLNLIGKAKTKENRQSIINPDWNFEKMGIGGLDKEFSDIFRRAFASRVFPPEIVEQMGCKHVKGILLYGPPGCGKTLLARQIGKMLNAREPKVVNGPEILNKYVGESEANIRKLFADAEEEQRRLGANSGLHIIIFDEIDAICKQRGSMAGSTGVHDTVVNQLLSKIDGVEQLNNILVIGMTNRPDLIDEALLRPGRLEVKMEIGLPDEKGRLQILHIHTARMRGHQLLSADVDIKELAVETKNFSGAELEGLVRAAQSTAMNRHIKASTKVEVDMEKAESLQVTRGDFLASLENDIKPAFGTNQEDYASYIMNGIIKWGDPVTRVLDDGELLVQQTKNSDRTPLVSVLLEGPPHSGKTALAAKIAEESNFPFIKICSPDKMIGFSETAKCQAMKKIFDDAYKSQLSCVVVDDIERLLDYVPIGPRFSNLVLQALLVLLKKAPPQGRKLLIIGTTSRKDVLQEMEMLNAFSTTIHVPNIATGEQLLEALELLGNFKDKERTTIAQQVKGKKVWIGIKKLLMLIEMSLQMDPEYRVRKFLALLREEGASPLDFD
UniProt Q8TEA1: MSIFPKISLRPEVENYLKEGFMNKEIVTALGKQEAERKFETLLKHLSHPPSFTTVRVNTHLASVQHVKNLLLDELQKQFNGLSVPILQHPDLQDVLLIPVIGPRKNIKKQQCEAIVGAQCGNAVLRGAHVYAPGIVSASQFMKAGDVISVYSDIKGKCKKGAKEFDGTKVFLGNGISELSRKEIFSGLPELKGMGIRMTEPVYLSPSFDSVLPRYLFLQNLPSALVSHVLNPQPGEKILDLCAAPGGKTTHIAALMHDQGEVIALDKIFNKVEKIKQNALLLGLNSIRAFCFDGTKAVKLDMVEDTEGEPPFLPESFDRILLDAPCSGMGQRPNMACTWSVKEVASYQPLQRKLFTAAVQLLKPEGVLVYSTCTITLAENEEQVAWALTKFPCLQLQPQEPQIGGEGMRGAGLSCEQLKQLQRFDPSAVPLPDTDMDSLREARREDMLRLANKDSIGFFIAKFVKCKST
UniProt Q5SY16: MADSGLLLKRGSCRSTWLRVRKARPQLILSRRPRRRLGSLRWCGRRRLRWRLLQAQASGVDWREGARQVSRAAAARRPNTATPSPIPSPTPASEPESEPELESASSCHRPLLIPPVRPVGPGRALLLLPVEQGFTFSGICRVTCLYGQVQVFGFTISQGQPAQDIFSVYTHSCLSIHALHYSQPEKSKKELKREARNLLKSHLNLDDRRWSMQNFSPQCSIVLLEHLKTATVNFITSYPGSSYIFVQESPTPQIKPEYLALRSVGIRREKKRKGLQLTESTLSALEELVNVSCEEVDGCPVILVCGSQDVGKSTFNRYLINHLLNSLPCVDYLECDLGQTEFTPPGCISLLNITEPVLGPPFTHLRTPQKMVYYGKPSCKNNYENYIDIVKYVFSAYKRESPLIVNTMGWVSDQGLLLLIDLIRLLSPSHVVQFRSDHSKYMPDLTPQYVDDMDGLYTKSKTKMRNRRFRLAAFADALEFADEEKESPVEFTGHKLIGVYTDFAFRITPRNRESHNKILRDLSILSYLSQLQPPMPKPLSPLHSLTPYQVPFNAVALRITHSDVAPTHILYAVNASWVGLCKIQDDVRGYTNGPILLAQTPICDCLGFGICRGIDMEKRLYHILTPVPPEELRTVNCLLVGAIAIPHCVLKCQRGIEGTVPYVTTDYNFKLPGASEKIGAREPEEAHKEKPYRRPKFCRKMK

Key:
Assay in all cases: log2 fold change, soluble protein after heating vs DMSO (PISA); higher = thermal stabilisation; K562 lysate, 10 uM; active = over 0.2 and 3.5 SD of the protein, either way, in both replicates (recomputed)
[1] = compound: CCCS(=O)(=O)Nc1ccc(F)c(C(=O)c2c[nH]c3ncc(-c4ccc(Cl)cc4)cc23)c1F [vemurafenib]
Summary of the method: (§1)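 Thermal stability, expressed as log-two fold change relative to solvent controls, is given from duplicates. Crude K562 extract in PBS pH 7.4 with 1 mM MgCl2, at 1 mg/mL protein, was treated with 10 μM compound for 30 min and heated in aliquots for 3 min across 48°C-58°C. After pooling, adjustment to 0.5% NP-40 at 4°C and centrifugation at 21,000xg for 90 min, supernatant protein was measured by TMTpro 16plex LC-MS/MS with channel sums equalised.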

[2] = compound: CCCS(=O)(=O)Nc1ccc(F)c(C(=O)c2c[nH]c3ncc(Cl)cc23)c1F
Summary of the method: as §1

[3] = compound: CCN(CCCOc1ccc2c(Nc3cc(CC(=O)Nc4cccc(F)c4)[nH]n3)ncnc2c1)CCOP(=O)(O)O [barasertib]
Summary of the method: as §1

[4] = compound: CC[C@@H]1C(=O)N(C)c2cnc(Nc3ccc(C(=O)NC4CCN(C)CC4)cc3OC)nc2N1C1CCCC1
Summary of the method: as §1

[5] = compound: CC[C@@H]1C(=O)N(C)c2cnc(Nc3ccc(C(=O)N[C@H]4CC[C@H](N5CCN(CC6CC6)CC5)CC4)cc3OC)nc2N1C(C)C [volasertib]
Summary of the method: as §1

[6] = compound: CCn1c(C(=O)N(C2CC2)C2CC2)cc2c3c(ncn3C)c(Nc3cc(C)n(C)n3)nc21
Summary of the method: as §1

[7] = compound: CCn1cc(-c2ccnc3[nH]c(-c4cccc(CN(C)C)c4)cc23)c(-c2ccc(NC(=O)N(C)C)cc2)n1
Summary of the method: as §1

[8] = compound: CN1CCC(CNc2ccc3ncc(-c4cccc(OC(F)(F)F)c4)n3n2)CC1
Summary of the method: as §1

[9] = compound: CN1CCN(CCOc2cc(OC3CCOCC3)c3c(Nc4c(Cl)ccc5c4OCO5)ncnc3c2)CC1 [saracatinib]
Summary of the method: as §1

[10] = compound: CN1CCN(c2nc(C3=C(c4c[nH]c5ccccc45)C(=O)NC3=O)c3ccccc3n2)CC1 [sotrastaurin]
Summary of the method: as §1

[11] = compound: CN1CC[C@H](c2c(O)cc(O)c3c(=O)cc(-c4ccccc4Cl)oc23)[C@H](O)C1 [alvocidib]
Summary of the method: as §1

[12] = compound: CN1CCc2c(c3ccccc3n2Cc2ccc(C(=O)NO)cc2)C1 [Tubastatin A]
Summary of the method: as §1

[13] = compound: CNC(=O)C1=CC=CC=C1NC2=NC(=NC=C2Cl)NC3=C(C=C(C=C3)N4CCOCC4)OC
Summary of the method: as §1

[14] = compound: CNC(=O)c1ccc(Nc2ncc(C(F)(F)F)c(NCc3nccnc3N(C)S(C)(=O)=O)n2)cc1 [defactinib]
Summary of the method: as §1

[15] = compound: CNc1nc(-c2ccc3c(N)n[nH]c3c2)cc(N2C[C@@H](C(=O)NC3CCCCC3)CC[C@H]2C)n1
Summary of the method: as §1

[16] = compound: COC(=O)N[C@@H](C)CNc1nccc(-c2cn(C(C)C)nc2-c2cc(Cl)cc(NS(C)(=O)=O)c2F)n1 [encorafenib]
Summary of the method: as §1

[17] = compound: COC(=O)[C@H](CCSC)NC(=O)C1=C(C=C(C=C1)NC[C@H](CS)N)C2=CC=CC=C2
Summary of the method: as §1

[18] = compound: COc1cc(Nc2ncc3c(n2)-c2ccc(Cl)cc2C(c2c(F)cccc2OC)=NC3)ccc1C(=O)O [alisertib]
Summary of the method: as §1

[19] = compound: COc1cc2nc(-c3cc(F)ccc3O)nc(N[C@@H]3CNC[C@H]3C(C)(C)O)c2cc1OC
Summary of the method: as §1

[20] = compound: COc1cc2ncnc(Nc3ccc(F)c(Cl)c3)c2cc1OCCCN1CCOCC1 [gefitinib]
Summary of the method: as §1

Measured: log2 fold change

NUDT15 (UniProt Q9NV35)
inactive: [1] 0.019 | [2] 0.072 | [3] -0.014 | [4] -0.06 | [5] -0.06 | [6] -0.032 | [7] -0.235 | [8] -0.022 | [9] 0.038 | [10] 0.002 | [11] 0 | [12] -0.057 | [13] -0.071 | [14] -0.025 | [15] 0.07 | [16] -0.009 | [17] 0.088 | [18] -0.083 | [19] 0.036 | [20] 0.028

NOLC1 isoform 2 (UniProt Q14978)
inactive: [1] -0.012 | [2] 0.009 | [3] 0.01 | [4] -0.027 | [5] 0.019 | [6] 0 | [7] -0.066 | [8] 0.027 | [9] -0.009 | [10] -0.034 | [11] -0.035 | [12] 0.059 | [13] -0.018 | [14] -0.01 | [15] 0.04 | [16] 0.007 | [17] -0.021 | [18] 0 | [19] 0.041 | [20] 0.006

NOP58 (UniProt Q9Y2X3)
inactive: [1] -0.003 | [2] 0.04 | [3] 0.014 | [4] 0.003 | [5] -0.018 | [6] 0.014 | [7] 0.037 | [8] -0.091 | [9] -0.013 | [10] -0.003 | [11] 0.02 | [12] -0.04 | [13] 0.014 | [14] 0.004 | [15] 0.023 | [16] 0.008 | [17] 0.014 | [18] -0.012 | [19] 0 | [20] 0.001

NQO2 (UniProt P16083)
inactive: [1] -0.007 | [2] 0.003 | [3] 0.107 | [4] 0.02 | [5] 0.031 | [6] 0.004 | [7] 0.011 | [8] 0.017 | [9] -0.029 | [10] 0.035 | [11] 0.022 | [12] 0.029 | [13] 0.041 | [14] 0 | [15] 0.024 | [16] -0.007 | [17] -0.054 | [18] -0.047 | [19] -0.006 | [20] 0.011

NUDT16 (UniProt Q96DE0)
inactive: [1] -0.035 | [2] 0.026 | [3] 0.007 | [4] 0.05 | [5] -0.022 | [6] -0.008 | [7] -0.049 | [8] 0.07 | [9] -0.008 | [10] -0.013 | [11] -0.023 | [12] 0.081 | [13] 0.02 | [14] 0.067 | [15] 0.093 | [16] 0.048 | [17] -0.01 | [18] 0.002 | [19] -0.006 | [20] 0.029

NPM3 (UniProt O75607)
inactive: [1] 0.052 | [2] 0.03 | [3] -0.065 | [4] 0.058 | [5] -0.015 | [6] -0.007 | [8] 0.158 | [9] -0.023 | [10] 0.025 | [11] -0.04 | [12] 0.015 | [13] -0.017 | [14] 0.062 | [15] 0.011 | [16] 0.012 | [17] 0.028 | [18] -0.002 | [19] 0.023 | [20] -0.015
active: [7] -0.376

NMI (UniProt Q13287)
inactive: [1] 0.011 | [2] -0.012 | [3] 0.013 | [4] 0.014 | [5] 0.014 | [6] -0.044 | [7] 0.014 | [8] 0.011 | [9] -0.022 | [10] -0.019 | [11] 0 | [12] 0.027 | [13] -0.003 | [14] -0.004 | [15] 0.029 | [16] 0.001 | [17] -0.001 | [18] 0.02 | [19] 0.003 | [20] 0.002

NUBP1 (UniProt P53384)
inactive: [1] 0.009 | [2] -0.026 | [3] 0.006 | [4] -0.037 | [5] 0.01 | [6] 0.035 | [7] -0.012 | [8] 0.005 | [9] 0.004 | [10] -0.047 | [11] 0.022 | [12] -0.064 | [13] 0.033 | [14] -0.003 | [15] 0.002 | [16] -0.006 | [17] 0.007 | [18] 0.004 | [19] 0.021 | [20] 0.013

NUMB (UniProt P49757)
inactive: [1] 0.001 | [2] 0.001 | [3] 0.028 | [4] 0.06 | [5] -0.015 | [6] 0.008 | [7] 0.055 | [8] -0.061 | [9] 0.024 | [10] -0.134 | [11] -0.021 | [12] -0.125 | [13] -0.028 | [14] -0.02 | [15] 0.026 | [16] 0.094 | [17] 0.013 | [18] -0.031 | [19] -0.007 | [20] 0.052

NUMBL (UniProt Q9Y6R0)
inactive: [1] -0.06 | [2] 0.014 | [3] -0.005 | [4] -0.009 | [5] -0.037 | [6] 0.189 | [7] 0.032 | [8] -0.011 | [9] 0.052 | [10] -0.278 | [11] -0.032 | [12] -0.103 | [13] -0.023 | [14] -0.218 | [15] 0.023 | [16] 0.189 | [17] -0.068 | [18] -0.064 | [19] 0.044 | [20] 0.09

NOP16 (UniProt Q9Y3C1)
inactive: [1] 0.017 | [2] -0.007 | [3] -0.003 | [4] -0.003 | [5] -0.026 | [6] 0.008 | [7] 0.046 | [8] -0.007 | [9] 0.011 | [10] 0.008 | [11] 0.018 | [12] 0.013 | [13] 0.053 | [14] -0.013 | [15] -0.009 | [16] 0.005 | [17] 0.03 | [18] -0.008 | [19] -0.021 | [20] -0.012

NTMT1 (UniProt Q9BV86)
inactive: [1] 0.023 | [2] 0.026 | [3] 0.026 | [4] -0.029 | [5] -0.024 | [6] 0.015 | [7] 0.055 | [8] -0.101 | [9] 0.008 | [10] 0.056 | [11] 0.047 | [12] -0.175 | [13] 0.018 | [14] 0.065 | [15] 0.023 | [16] -0.006 | [17] 0.166 | [18] -0.007 | [19] -0.016 | [20] 0.057

NSF (UniProt P46459)
inactive: [1] -0.003 | [2] 0.015 | [3] 0.019 | [4] -0.026 | [5] -0.051 | [6] 0.019 | [7] 0.014 | [8] -0.077 | [9] 0.019 | [10] -0.013 | [11] -0.013 | [12] -0.051 | [13] 0.015 | [14] -0.011 | [15] -0.023 | [16] -0.007 | [17] 0.128 | [18] 0.021 | [19] -0.009 | [20] 0.015

NRAS (UniProt P01111)
inactive: [1] -0.069 | [2] -0.003 | [3] 0.09 | [4] 0.017 | [5] 0.006 | [6] -0.023 | [7] -0.036 | [8] -0.009 | [9] 0.037 | [10] -0.015 | [11] 0.023 | [12] -0.009 | [13] -0.003 | [14] 0.006 | [15] -0.015 | [16] -0.008 | [17] -0.085 | [18] -0.008 | [19] -0.004 | [20] -0.001

Pulled one by one from above (two):
NUBP1 (UniProt P53384)
inactive: [1] 0.009 | [2] -0.026 | [3] 0.006 | [4] -0.037 | [5] 0.01 | [6] 0.035 | [7] -0.012 | [8] 0.005 | [9] 0.004 | [10] -0.047 | [11] 0.022 | [12] -0.064 | [13] 0.033 | [14] -0.003 | [15] 0.002 | [16] -0.006 | [17] 0.007 | [18] 0.004 | [19] 0.021 | [20] 0.013

NTMT1 (UniProt Q9BV86)
inactive: [1] 0.023 | [2] 0.026 | [3] 0.026 | [4] -0.029 | [5] -0.024 | [6] 0.015 | [7] 0.055 | [8] -0.101 | [9] 0.008 | [10] 0.056 | [11] 0.047 | [12] -0.175 | [13] 0.018 | [14] 0.065 | [15] 0.023 | [16] -0.006 | [17] 0.166 | [18] -0.007 | [19] -0.016 | [20] 0.057

Next part:

NSUN6 (UniProt Q8TEA1)
inactive: [1] 0.039 | [2] 0.015 | [3] 0.044 | [4] -0.031 | [5] 0.017 | [6] -0.025 | [7] -0.022 | [8] 0.009 | [9] -0.007 | [10] -0.023 | [11] 0.004 | [12] -0.013 | [13] 0.039 | [14] -0.003 | [15] 0.032 | [16] 0.002 | [17] 0.023 | [18] 0.004 | [19] 0.048 | [20] -0.009

NOL9 (UniProt Q5SY16)
inactive: [1] 0.044 | [2] -0.026 | [3] -0.011 | [4] -0.001 | [5] -0.003 | [6] 0 | [7] 0.028 | [8] -0.095 | [9] -0.022 | [10] 0.054 | [11] 0.043 | [12] -0.096 | [13] 0.018 | [14] 0.011 | [15] -0.016 | [16] 0.073 | [17] 0.024 | [18] -0.054 | [19] 0.007 | [20] -0.005
